Molecular target: MDM2 (Homo sapiens, UniProt Q00987)
Experiment: MDM2 binding IC50/Ki (in vitro displacement, fluorescence polarization)

Sequences of proteins named here, by UniProt entry; tags and fusion partners are left off.
UniProt Q00987, whole entry: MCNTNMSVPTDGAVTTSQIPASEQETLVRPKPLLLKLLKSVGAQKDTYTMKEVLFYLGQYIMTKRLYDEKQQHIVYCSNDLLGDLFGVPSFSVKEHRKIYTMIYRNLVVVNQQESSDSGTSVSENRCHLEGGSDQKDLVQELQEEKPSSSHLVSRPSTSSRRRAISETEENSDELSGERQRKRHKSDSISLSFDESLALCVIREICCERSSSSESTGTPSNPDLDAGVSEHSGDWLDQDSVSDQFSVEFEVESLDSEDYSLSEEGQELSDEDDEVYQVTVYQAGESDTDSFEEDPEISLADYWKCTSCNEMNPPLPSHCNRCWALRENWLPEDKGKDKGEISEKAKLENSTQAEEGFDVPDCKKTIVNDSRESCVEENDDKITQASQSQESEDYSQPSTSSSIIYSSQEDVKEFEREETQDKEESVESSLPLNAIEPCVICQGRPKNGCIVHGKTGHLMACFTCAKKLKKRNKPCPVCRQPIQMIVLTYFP

## CC(=O)N[C@@H](C(=O)N[C@H](C)C(=O)N[C@H](Cc1c[nH]c2ccccc12)C(=O)N[C@H](Cc1ccc(O)cc1)C(=O)N[C@@]1(C)CCCCCCC=CCCC[C@](C)(C(=O)N[C@H](C)C(N)=O)NC(=O)[C@@H](CC(C)C)NC(=O)[C@@H](CC(C)C)NC(=O)[C@@H](CCCCN)NC(=O)[C@@H](CCC(=O)O)NC(=O)[C@@H](Cc2ccc(C(F)(F)F)cc2)NC(=O)[C@@H](CC(N)=O)NC1=O)[C@H](C)O [SP757, Ac-tawy$s8nf4CF3ekll$r5a-NH2]
  Ki: 2.92 nM
